# Source: the supplement of paper PMC12067093, “Discovery and optimisation of a covalent ligand for TRIM25 and its application to targeted protein ubiquitination” (Chemical Science, 2025)
# Chains of the proteins cited; added tags and fusions are not shown. Lines headed by an entry give the natural chain unless they say otherwise; changes in a name come on top.
# UniProt O95782: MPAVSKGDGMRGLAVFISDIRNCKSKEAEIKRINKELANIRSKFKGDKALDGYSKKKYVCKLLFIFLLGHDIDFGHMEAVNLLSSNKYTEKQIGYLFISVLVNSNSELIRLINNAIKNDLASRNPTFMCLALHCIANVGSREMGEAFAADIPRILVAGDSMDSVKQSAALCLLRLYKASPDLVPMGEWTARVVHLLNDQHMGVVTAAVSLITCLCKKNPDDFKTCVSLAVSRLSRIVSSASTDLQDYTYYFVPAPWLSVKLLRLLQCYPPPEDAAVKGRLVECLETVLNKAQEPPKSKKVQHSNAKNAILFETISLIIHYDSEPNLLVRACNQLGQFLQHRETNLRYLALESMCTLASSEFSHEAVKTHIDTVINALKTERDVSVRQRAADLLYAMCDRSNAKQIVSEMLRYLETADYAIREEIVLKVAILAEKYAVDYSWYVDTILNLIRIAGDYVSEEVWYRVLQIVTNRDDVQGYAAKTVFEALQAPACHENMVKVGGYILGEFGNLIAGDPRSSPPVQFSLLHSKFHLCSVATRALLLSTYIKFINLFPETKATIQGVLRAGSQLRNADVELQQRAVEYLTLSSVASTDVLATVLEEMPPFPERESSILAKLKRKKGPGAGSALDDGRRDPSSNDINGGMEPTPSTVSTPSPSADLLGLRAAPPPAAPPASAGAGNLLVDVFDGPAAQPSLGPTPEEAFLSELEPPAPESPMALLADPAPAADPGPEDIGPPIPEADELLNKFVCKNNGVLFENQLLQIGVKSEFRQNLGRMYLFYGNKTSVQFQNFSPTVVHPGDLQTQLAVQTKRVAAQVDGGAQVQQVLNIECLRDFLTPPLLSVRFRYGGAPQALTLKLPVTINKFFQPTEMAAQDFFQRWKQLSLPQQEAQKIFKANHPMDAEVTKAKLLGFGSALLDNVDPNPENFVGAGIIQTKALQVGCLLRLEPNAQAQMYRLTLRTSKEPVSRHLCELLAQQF
# UniProt P08133: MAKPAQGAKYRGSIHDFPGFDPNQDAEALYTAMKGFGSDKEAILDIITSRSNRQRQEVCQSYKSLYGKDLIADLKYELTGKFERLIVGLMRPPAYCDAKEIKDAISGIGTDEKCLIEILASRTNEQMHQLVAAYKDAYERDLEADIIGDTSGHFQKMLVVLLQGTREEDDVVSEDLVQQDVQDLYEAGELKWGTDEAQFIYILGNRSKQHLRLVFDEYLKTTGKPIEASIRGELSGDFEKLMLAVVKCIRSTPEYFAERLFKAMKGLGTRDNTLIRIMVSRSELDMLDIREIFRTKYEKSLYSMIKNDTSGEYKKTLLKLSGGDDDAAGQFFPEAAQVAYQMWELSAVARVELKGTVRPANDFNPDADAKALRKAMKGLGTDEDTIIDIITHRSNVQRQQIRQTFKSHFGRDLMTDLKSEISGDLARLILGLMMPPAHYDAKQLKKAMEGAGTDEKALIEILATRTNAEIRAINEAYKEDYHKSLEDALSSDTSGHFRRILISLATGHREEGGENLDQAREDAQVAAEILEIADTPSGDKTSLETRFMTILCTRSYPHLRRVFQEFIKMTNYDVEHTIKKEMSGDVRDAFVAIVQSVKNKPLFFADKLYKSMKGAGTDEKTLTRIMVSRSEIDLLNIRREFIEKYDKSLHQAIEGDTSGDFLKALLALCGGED
# UniProt Q8IWZ3: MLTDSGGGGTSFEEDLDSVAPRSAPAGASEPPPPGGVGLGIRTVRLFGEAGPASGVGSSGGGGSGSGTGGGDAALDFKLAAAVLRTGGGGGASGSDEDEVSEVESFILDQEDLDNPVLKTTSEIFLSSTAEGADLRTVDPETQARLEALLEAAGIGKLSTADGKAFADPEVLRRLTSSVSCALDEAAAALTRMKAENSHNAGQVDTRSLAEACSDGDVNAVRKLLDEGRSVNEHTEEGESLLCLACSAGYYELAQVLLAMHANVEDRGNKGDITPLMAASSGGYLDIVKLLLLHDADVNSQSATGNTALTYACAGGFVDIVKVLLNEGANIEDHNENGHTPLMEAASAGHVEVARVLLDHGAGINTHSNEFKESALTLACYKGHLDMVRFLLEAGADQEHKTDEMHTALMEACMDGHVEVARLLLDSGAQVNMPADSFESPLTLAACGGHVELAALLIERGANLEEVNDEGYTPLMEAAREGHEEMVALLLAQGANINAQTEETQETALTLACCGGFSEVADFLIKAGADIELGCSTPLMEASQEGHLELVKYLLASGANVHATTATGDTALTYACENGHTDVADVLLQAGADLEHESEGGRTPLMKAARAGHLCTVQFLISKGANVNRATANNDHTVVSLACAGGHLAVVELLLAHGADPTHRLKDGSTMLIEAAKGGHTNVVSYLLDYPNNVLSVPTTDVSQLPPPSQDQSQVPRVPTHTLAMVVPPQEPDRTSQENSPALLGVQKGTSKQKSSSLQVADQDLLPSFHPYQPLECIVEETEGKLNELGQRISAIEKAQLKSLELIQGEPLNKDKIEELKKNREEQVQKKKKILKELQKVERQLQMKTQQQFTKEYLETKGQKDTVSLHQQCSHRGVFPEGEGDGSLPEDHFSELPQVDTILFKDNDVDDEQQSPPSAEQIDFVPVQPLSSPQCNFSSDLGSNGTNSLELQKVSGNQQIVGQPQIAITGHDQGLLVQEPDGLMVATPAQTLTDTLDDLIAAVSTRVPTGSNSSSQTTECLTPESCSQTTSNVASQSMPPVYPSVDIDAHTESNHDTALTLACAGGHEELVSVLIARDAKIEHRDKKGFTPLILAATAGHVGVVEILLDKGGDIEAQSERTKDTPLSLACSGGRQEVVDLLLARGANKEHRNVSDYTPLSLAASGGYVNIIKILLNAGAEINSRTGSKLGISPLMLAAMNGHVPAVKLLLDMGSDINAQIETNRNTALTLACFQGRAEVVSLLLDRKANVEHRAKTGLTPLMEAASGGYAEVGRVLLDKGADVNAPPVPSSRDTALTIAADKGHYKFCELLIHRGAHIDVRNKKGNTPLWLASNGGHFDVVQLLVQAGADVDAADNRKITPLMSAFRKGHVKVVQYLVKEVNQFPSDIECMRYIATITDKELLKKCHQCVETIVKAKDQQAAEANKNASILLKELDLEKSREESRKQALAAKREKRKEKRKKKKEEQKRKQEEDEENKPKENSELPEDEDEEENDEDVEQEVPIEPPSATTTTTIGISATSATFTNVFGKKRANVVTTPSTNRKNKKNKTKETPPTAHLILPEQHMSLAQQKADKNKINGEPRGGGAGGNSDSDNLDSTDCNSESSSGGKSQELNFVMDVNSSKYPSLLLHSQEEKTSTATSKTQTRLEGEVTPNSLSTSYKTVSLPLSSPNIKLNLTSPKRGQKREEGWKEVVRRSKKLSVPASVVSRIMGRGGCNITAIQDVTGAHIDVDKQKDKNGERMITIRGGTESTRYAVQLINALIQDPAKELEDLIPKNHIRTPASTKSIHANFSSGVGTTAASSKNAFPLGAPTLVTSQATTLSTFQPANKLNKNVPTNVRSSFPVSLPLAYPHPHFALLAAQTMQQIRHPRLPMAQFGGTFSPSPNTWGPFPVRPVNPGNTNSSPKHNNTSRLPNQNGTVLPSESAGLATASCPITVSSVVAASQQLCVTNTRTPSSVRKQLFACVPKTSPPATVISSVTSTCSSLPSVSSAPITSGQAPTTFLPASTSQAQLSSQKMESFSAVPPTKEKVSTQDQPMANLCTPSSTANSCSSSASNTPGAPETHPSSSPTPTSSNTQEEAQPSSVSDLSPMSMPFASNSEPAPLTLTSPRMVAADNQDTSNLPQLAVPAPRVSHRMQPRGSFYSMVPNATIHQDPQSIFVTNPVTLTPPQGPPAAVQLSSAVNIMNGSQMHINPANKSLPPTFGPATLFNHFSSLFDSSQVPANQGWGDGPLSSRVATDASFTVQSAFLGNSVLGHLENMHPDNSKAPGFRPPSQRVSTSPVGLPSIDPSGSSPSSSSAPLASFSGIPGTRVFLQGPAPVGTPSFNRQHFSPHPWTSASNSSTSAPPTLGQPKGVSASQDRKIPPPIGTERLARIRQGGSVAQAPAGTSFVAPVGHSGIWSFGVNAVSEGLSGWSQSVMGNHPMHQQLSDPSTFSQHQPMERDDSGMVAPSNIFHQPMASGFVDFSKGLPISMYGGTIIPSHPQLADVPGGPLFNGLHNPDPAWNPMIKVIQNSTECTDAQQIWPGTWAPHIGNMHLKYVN
# UniProt Q9ULJ7: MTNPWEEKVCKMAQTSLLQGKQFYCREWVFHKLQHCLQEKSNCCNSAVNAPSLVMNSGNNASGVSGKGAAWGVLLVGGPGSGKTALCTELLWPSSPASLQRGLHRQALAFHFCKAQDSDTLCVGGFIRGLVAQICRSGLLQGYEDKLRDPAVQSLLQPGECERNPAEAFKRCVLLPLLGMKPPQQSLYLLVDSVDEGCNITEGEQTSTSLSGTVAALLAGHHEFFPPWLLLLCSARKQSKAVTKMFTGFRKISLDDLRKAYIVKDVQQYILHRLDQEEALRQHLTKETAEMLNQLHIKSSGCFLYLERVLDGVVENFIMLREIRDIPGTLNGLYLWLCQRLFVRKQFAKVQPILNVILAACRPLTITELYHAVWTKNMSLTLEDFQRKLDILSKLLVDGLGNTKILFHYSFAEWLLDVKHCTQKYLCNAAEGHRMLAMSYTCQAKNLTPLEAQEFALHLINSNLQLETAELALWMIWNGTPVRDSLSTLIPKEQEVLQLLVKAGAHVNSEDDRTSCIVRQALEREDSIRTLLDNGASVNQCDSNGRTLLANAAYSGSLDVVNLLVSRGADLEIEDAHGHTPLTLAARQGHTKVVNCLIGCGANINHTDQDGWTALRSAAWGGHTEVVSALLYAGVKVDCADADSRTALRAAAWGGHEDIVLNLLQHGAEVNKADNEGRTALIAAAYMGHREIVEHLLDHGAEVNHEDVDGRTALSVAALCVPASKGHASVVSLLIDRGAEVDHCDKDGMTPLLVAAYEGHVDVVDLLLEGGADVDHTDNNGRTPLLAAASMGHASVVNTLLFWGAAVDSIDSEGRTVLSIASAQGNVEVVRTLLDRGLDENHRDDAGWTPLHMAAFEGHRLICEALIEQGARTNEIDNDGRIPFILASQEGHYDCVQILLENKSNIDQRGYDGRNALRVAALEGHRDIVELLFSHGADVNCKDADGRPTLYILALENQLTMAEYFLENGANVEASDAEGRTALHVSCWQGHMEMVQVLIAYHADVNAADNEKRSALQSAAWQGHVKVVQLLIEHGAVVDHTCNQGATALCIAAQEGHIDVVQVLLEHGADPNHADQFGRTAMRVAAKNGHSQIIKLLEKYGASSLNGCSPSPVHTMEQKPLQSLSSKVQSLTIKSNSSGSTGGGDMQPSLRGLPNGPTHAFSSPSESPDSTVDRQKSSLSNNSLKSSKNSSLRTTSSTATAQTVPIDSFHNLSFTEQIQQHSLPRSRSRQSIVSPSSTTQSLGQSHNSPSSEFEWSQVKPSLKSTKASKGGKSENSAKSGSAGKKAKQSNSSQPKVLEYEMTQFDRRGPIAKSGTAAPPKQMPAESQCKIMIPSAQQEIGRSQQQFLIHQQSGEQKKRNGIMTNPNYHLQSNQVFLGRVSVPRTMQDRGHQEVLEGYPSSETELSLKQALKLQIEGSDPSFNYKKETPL
# UniProt P27695, whole entry, looked up: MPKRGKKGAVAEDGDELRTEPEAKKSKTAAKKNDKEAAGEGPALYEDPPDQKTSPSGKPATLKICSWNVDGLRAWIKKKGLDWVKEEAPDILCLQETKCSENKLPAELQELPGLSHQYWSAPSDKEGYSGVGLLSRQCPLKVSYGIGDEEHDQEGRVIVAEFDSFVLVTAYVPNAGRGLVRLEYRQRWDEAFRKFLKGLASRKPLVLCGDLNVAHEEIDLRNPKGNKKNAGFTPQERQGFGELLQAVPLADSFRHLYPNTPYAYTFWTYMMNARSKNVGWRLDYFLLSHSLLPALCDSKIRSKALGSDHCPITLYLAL
# UniProt Q8IV38: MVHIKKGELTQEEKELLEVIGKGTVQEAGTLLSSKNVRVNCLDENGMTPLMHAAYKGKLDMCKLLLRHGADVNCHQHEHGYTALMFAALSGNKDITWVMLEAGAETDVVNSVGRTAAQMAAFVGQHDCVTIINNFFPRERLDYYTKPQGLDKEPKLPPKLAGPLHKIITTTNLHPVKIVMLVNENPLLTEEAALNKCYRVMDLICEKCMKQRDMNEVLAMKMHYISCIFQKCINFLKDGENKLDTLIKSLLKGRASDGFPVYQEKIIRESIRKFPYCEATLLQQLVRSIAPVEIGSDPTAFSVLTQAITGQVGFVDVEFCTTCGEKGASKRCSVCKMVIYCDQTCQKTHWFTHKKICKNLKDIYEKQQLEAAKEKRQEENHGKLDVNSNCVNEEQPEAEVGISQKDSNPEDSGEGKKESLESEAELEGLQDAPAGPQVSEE
# UniProt Q53RE8: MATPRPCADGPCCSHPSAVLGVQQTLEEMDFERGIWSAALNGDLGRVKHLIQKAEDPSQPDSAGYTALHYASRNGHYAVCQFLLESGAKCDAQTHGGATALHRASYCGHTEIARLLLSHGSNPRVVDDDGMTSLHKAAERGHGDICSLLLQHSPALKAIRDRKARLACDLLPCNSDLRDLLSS
# The other results are listed elsewhere or left out.
# Compound: CC1Cc2ccccc2N1C(=O)C1CCCN(C1)C(=O)CCl (mixture of isomers) [TRIM25 ligand 11 (diastereomer mixture)]
# Assay: probe-labelled cysteine peptide fold change vs DMSO (competition) (log2 fold change); higher = less target engagement (more negative = stronger competition)
# Conditions: THP-1, incubation time: 4 h
# 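Further: competitive chemoproteomic profiling in live THP-1 cells with an iodoacetamide desthiobiotin (IA-DTB) probe, comparing probe-labelled peptide intensities in compound-treated cells against DMSO-treated controls.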
Target,probe-labelled cysteine peptide fold change (10 µM),probe-labelled cysteine peptide fold change (50 µM)
ANXA4_P09525_198_FLTVLCSR (UniProt P09525),-0.0707,0.0642
AP2A1_O95782_492_TVFEALQAPACHENMVK (UniProt O95782),0.179,0.0904
APMAP_Q9HDC9_149_TRDDEPVCGRPLGIR (UniProt Q9HDC9),-0.051,-0.0843
ANKRD28_O15084_387_GIHGMFPLHLAALSGFSDCCR (UniProt O15084),0.00609,0.103
ANKLE2_Q86XL3_844_RLFLFGEEPSKLDQDVLAALECADVDPHQFPAVHR (UniProt Q86XL3),0.128,-0.047
ANKFY1_Q9P2R3_843_QGLTPFACAMTFK (UniProt Q9P2R3),-0.0732,-0.114
ANKRD10_Q9NXR5_140_SGSLECISALVANGAHVDLR (UniProt Q9NXR5),-0.314,-0.119
ANXA2_P07355_262_GDLENAFLNLVQCIQNK (UniProt P07355),0.248,0.417
APMAP_Q9HDC9_140_FGSGPCK (UniProt Q9HDC9),-0.0345,0.017
AP3M1_Q9Y2T2_288_ENSSCGR (UniProt Q9Y2T2),0.544,0.494
ANKRD52_Q8NB46_1001_NGLASVVQALLSHGATVLAVDEEGHTPALACAPNK (UniProt Q8NB46),-0.105,-0.371
AP3D1_O14617_479_NGICEVLYAAAWICGEFSEHLQEPHHTLEAMLRPR (UniProt O14617),0.196,0.0418
AP3D1_O14617_1117_SIQGHHVCLLVK (UniProt O14617),0.144,-0.172
ANXA6_P08133_96_LIVGLMRPPAYCDAK (UniProt P08133),-0.00557,0.044
ANKRD52_Q8NB46_733_GAVTGCEDCLAALLDHDAFVLCR (UniProt Q8NB46),0.0415,0.0111
ANP32E_Q9BTT0_87_CPNLTYLNLSGNK (UniProt Q9BTT0),-0.0948,-0.106
AP3D1_O14617_348_DLILQCLDDKDESIR (UniProt O14617),0.0293,0.136
ANLN_Q9NQW6_210_LANLAATICSWEDDVNHSFAK (UniProt Q9NQW6),-0.159,0.299
APAF1_O14727_538_DCAVSENFQEFLSLNGHLLGR (UniProt O14727),0.0289,-0.0578
APBB1IP_Q7Z5R6_401_YLCCDDTR (UniProt Q7Z5R6),-0.0505,-0.0813
AP1B1_Q10567_57_DVSALFPDVVNCMQTDNLELK (UniProt Q10567),0.215,0.139

Target,probe-labelled cysteine peptide fold change (10 µM),probe-labelled cysteine peptide fold change (50 µM)
AP2B1_P63010_144_KTAAVCVAK (UniProt P63010),-0.517,-0.385
ANKFY1_Q9P2R3_724_HGCDATCWGPGPGGCLQTLLHR (UniProt Q9P2R3),-0.0309,0.0578
AP2A1_O95782_941_ALQVGCLLR (UniProt O95782),0.251,0.29
ANKHD1_Q8IWZ3_1965_QLFACVPK (UniProt Q8IWZ3),-0.0508,-0.109
ANKRD50_Q9ULJ7_113_QALAFHFCK (UniProt Q9ULJ7),0.472,0.778
ANKLE2_Q86XL3_367_ENQASICQLTLDVLENPDFMR (UniProt Q86XL3),0.0789,0.189
AP1G1_O43747_353_STIVDCLK (UniProt O43747),-0.0109,0.0363
AP2A1_O95782_397_AADLLYAMCDR (UniProt O95782),0.0823,-0.0127
APBB1IP_Q7Z5R6_355_DLACFIQFENVNIYYGTQHK (UniProt Q7Z5R6),0.0789,0.136
APEX1_P27695_93_EEAPDILCLQETK (UniProt P27695),-0.052,-0.254
ANKRD17_O75179_644_AGHVCTVQFLISK (UniProt O75179),-0.0225,-0.0531
AP5M1_Q9H0R1_444_ILDYTLTGCYADQHSVQVFASGKPK (UniProt Q9H0R1),0.0751,0.0182
ANKRD28_O15084_598_GHVECVDVLINQGASILVK (UniProt O15084),-0.00834,-0.0665
APAF1_O14727_662_AHEDEVLCCAFSTDDR (UniProt O14727),0.117,0.215
AP1B1_Q10567_921_IQPGNPSCTDLELSLK (UniProt Q10567),0.0204,-0.0722
AP3D1_O14617_208_EKLEDPDPGVQSAAVNVICELAR (UniProt O14617),-0.0536,0.0308
APAF1_O14727_1083_DFVCHQGTVLSCDISHDATK (UniProt O14727),0.104,0.153
ANKRD44_Q8N8A2_731_GIMTGHEECVQMLLEQEVSILCK (UniProt Q8N8A2),-0.172,-0.159
ANO6_Q4KMQ2_426_CTHVVINEITQEEER (UniProt Q4KMQ2),0.253,-0.0102
APAF1_O14727_662+663_AHEDEVLCCAFSTDDR (UniProt O14727),0.223,0.213
AP1B1_Q10567_930_CRAPEVSQHVYQAYETILK (UniProt Q10567),0.0204,-0.125

Target,probe-labelled cysteine peptide fold change (10 µM),probe-labelled cysteine peptide fold change (50 µM)
APBB1IP_Q7Z5R6_215_THCDCNVDWCLYEIYPELQIER (UniProt Q7Z5R6),-0.235,-0.124
ANKRD16_Q6P6B7_322_SALHLACAGQHLACAK (UniProt Q6P6B7),-0.0134,0.16
AP1B1_Q10567_866_DCPLNAEAASSK (UniProt Q10567),-0.0509,-0.0352
ANKLE2_Q86XL3_702_NGLCHPLNHSR (UniProt Q86XL3),-0.309,-0.396
AP1G2_O75843_393_AMMQELQAFLESCPPDLR (UniProt O75843),0.31,-0.0464
AP2M1_Q96CW1_251_QSIAIDDCTFHQCVR (UniProt Q96CW1),0.0886,0.0762
APAF1_O14727_426_SLLFCDR (UniProt O14727),0.0723,0.0805
ANKMY2_Q8IV38_205_VMDLICEK (UniProt Q8IV38),-0.069,0.0512
APIP_Q96GX9_147_CTSGGYYR (UniProt Q96GX9),0.156,0.162
ANXA6_P08133_552_FMTILCTR (UniProt P08133),-0.039,0.00359
AP5Z1_O43299_546_LAPLHQLLQPMAGCAR (UniProt O43299),0.158,0.052
APEX1_P27695_296_LDYFLLSHSLLPALCDSK (UniProt P27695),0.0977,0.115
ANKRD45_Q5TZF3_116_GYTLLHCAAAWGR (UniProt Q5TZF3),-0.147,0.0731
ANKLE2_Q86XL3_674_CSAFPLEQEADLIEAAEPGGPHSSR (UniProt Q86XL3),-0.0438,-0.165
ANKHD1_Q8IWZ3_873_DTVSLHQQCSHR (UniProt Q8IWZ3),0.0142,-0.128
APEX1_P27695_65_ICSWNVDGLR (UniProt P27695),-0.0619,0.0189
ANKRD17_O75179_564_AGADIELGCSTPLMEAAQEGHLELVK (UniProt O75179),0.236,0.0516
APEH_P13798_594_DVQFAVEQVLQEEHFDASHVALMGGSHGGFISCHLIGQYPETYR (UniProt P13798),0.26,0.34
AP3B1_O00203_215_STLVAGSVVMAFEEVCPDRIDLIHK (UniProt O00203),-0.0389,0.0382
ANKMY2_Q8IV38_341_MVIYCDQTCQK (UniProt Q8IV38),-0.00689,0.0152
APEH_P13798_312_LSPDQCR (UniProt P13798),0.00256,0.0848

Target,probe-labelled cysteine peptide fold change (10 µM),probe-labelled cysteine peptide fold change (50 µM)
AP2A2_O94973_903_TTQIGCLLR (UniProt O94973),-0.0291,0.025
ANKRD39_Q53RE8_107_ASYCGHTEIAR (UniProt Q53RE8),0.114,0.0148
ANKZF1_Q9H8Y5_713_CLQDHR (UniProt Q9H8Y5),0.0195,0.127
ANXA6_P08133_114_CLIEILASR (UniProt P08133),0.0493,0.0263
ANKRD50_Q9ULJ7_161_LRDPAVQSLLQPGECER (UniProt Q9ULJ7),-0.00261,0.0664
AP5B1_Q2VPB7_420_LHLLCLLCAEEEEEEK (UniProt Q2VPB7),0.207,0.17
ANKRD44_Q8N8A2_420_TCLHAAAAGGNVECIK (UniProt Q8N8A2),-0.0346,-0.0123
ANKRD17_O75179_242_SLAEACSEGDVNAVR (UniProt O75179),0.102,0.161
AOAH_P28039_329_RNHCNHR (UniProt P28039),-0.034,0.167
ANO6_Q4KMQ2_134_VHAPWEVLCTYAEIMHIK (UniProt Q4KMQ2),-0.0189,-0.111
ANKRD54_Q6NXT1_185_DGLGNTPLHLAACTNHVPVITTLLR (UniProt Q6NXT1),-0.041,-0.0884
APAF1_O14727_115_TVLCEGGVPQRPVVFVTR (UniProt O14727),-0.0697,-0.151
ANKRD13A_Q8IZ07_5_SSACDAGDHYPLHLLVWK (UniProt Q8IZ07),0.0841,-0.175
ANKMY2_Q8IV38_41_VNCLDENGMTPLMHAAYK (UniProt Q8IV38),0.0439,-0.0309
AP2B1_P63010_565_PLISEETDLIEPTLLDELICHIGSLASVYHKPPNAFVEGSHGIHR (UniProt P63010),-0.139,-0.115
AOC1_P19801_391_YLDVGWGLGSVTHELAPGIDCPETATFLDTFHYYDADDPVHYPR (UniProt P19801),0.298,0.165
AP3M1_Q9Y2T2_236_LLDDVSFHPCIR (UniProt Q9Y2T2),0.0679,0.0303
ANKRD28_O15084_701_GAVTGHEECVDALLQHGAK (UniProt O15084),-0.117,0.0623
ANO6_Q4KMQ2_105_QAYESNLICHGLQLEATR (UniProt Q4KMQ2),-0.0838,-0.0162
